# Measurements from the supplement of paper PMC4604168 (melanoma cell lines).
# The list shows a part of the results. Repeats are few or missing, and single values can be far off.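 Imaging used 1,536-well plates; nuclei positive for cleaved PARP by antibody were divided by total DNA-stained nuclei to yield the apoptosis fraction. Doses for screening kept most cells viable, and cell lines differ markedly in resting and induced cleaved-PARP levels.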
# Assays:
# Experiment in all cases: cleaved PARP positive nuclei fraction relative to DMSO control; melanoma cells; higher = more apoptosis
# Conditions in all cases: library dose: low library concentration; 72 h
# 501Mel = test system: 501Mel
# A101D = test system: A101D
# A2058 = test system: A2058
# A375 = test system: A375
# C32 = test system: C32
# CBRC008 = test system: CBRC008 (line from a melanoma biopsy)
# CBRC013 = test system: CBRC013 (line from a melanoma biopsy)
# CBRC014 = test system: CBRC014 (line from a melanoma biopsy)
# CBRC016 = test system: CBRC016 (line from a melanoma biopsy)
# CBRC017 = test system: CBRC017 (line from a melanoma biopsy)
# COLO792 = test system: COLO792
# COLO800 = test system: COLO800
# COLO829 = test system: COLO829
# G361 = test system: G361
# IPC-298 = test system: IPC-298
# IST-MEL1 = test system: IST-MEL1
# LB2518-MEL = test system: LB2518-MEL
# LOXIMVI = test system: LOXIMVI
# MEL-HO = test system: MEL-HO
Compound,cleaved PARP positive nuclei fraction (501Mel) [%],cleaved PARP positive nuclei fraction (A101D) [%],cleaved PARP positive nuclei fraction (A2058) [%],cleaved PARP positive nuclei fraction (A375) [%],cleaved PARP positive nuclei fraction (C32) [%],cleaved PARP positive nuclei fraction (CBRC008) [%],cleaved PARP positive nuclei fraction (CBRC013) [%],cleaved PARP positive nuclei fraction (CBRC014) [%],cleaved PARP positive nuclei fraction (CBRC016) [%],cleaved PARP positive nuclei fraction (CBRC017) [%],cleaved PARP positive nuclei fraction (COLO792) [%],cleaved PARP positive nuclei fraction (COLO800) [%],cleaved PARP positive nuclei fraction (COLO829) [%],cleaved PARP positive nuclei fraction (G361) [%],cleaved PARP positive nuclei fraction (IPC-298) [%],cleaved PARP positive nuclei fraction (IST-MEL1) [%],cleaved PARP positive nuclei fraction (LB2518-MEL) [%],cleaved PARP positive nuclei fraction (LOXIMVI) [%],cleaved PARP positive nuclei fraction (MEL-HO) [%]
"CC1(C)CCC(c2ccc(Cl)cc2)=C(CN2CCN(c3ccc(C(=O)NS(=O)(=O)c4ccc(N[C@H](CCN5CCOCC5)CSc5ccccc5)c(S(=O)(=O)C(F)(F)F)c4)cc3)CC2)C1 + CC1(C)NC(=O)N(c2ccc([N+](=O)[O-])c(C(F)(F)F)c2)C1=O [nilutamide] (first compound 0.4 µM, partner dose 1 µM)",85,158,274,126,386,369,61.8,347,318,247,316,143,61.7,159,194,52.8,85.4,125,174
"CN(c1ncccc1CNc1nc(Nc2ccc3c(c2)CC(=O)N3)ncc1C(F)(F)F)S(C)(=O)=O + COc1cc(Nc2ncc(F)c(Nc3ccc4c(n3)NC(=O)C(C)(C)O4)n2)cc(OC)c1OC [Tamatinib] (first compound 0.08 µM, partner dose 0.4 µM)",108,95.9,273,161,119,83.5,118,97.9,131,75.3,181,76.6,130,84.3,106,69.1,199,158,144
"NC1(c2ccc(-c3nc4ccn5c(=O)[nH]nc5c4cc3-c3ccccc3)cc2)CCC1 + Cc1ccc(NC(=O)c2cccc(N(C)C)c2)cc1NC(=O)c1ccc(O)cc1 [ZM336372] (first compound 0.4 µM, partner dose 2 µM)",84.7,152,77.5,139,149,44.9,103,88.6,160,88.1,240,191,152,78.8,75.8,27.7,74.8,103,74.4
"C[C@]1(O)C[C@@H](c2nc(-c3ccc4ccc(-c5ccccc5)nc4c3)c3c(N)nccn32)C1 + CC1(C)NC(=O)N(c2ccc([N+](=O)[O-])c(C(F)(F)F)c2)C1=O [nilutamide] (first compound 0.4 µM, partner dose 1 µM)",85.2,36.8,59.3,128,67.5,71.8,120,90.8,104,78.3,111,79.5,187,53.5,47.5,85.7,104,96.1,124
"NC1(c2ccc(-c3nc4ccn5c(=O)[nH]nc5c4cc3-c3ccccc3)cc2)CCC1 + COc1cc(Nc2ncc(F)c(Nc3ccc4c(n3)NC(=O)C(C)(C)O4)n2)cc(OC)c1OC [Tamatinib] (first compound 0.4 µM, partner dose 0.4 µM)",133,61.8,125,317,77.6,288,126,91.5,140,84.2,817,62.1,147,136,116,105,106,94.2,33.1
"CC1(C)CCC(c2ccc(Cl)cc2)=C(CN2CCN(c3ccc(C(=O)NS(=O)(=O)c4ccc(N[C@H](CCN5CCOCC5)CSc5ccccc5)c(S(=O)(=O)C(F)(F)F)c4)cc3)CC2)C1 + NC(=O)Nc1cc(-c2cccc(F)c2)sc1C(=O)N[C@H]1CCCNC1 [AZD7762] (first compound 0.4 µM, partner dose 0.02 µM)",214,202,139,1960,858,306,85.4,340,569,276,353,184,136,159,137,76.3,119,127,159
"NC1(c2ccc(-c3nc4ccn5c(=O)[nH]nc5c4cc3-c3ccccc3)cc2)CCC1 + CN(NC(=O)CC(=O)NN(C)C(=S)c1ccccc1)C(=S)c1ccccc1 [STA4783] (first compound 0.4 µM, partner dose 0.006 µM)",104,124,46.2,5710,73.3,3580,119,546,142,354,207,239,204,73.4,101,58.1,160,160,93.9
"CC(=O)O[C@@]12CO[C@@H]1C[C@H](O)[C@@]1(C)C(=O)[C@H](O)C3=C(C)[C@@H](OC(=O)[C@H](O)[C@@H](NC(=O)OC(C)(C)C)c4ccccc4)C[C@@](O)([C@@H](OC(=O)c4ccccc4)[C@H]21)C3(C)C [Docetaxel] + CC(C)(C)c1cnc(CSc2cnc(NC(=O)C3CCNCC3)s2)o1 [SNS-032] (first compound 0.0001 µM, partner dose 0.01 µM)",312,105,5400,1280,350,228,89.2,146,164,119,328,77.4,205,785,127,297,129,112,218
"C[C@]1(O)C[C@@H](c2nc(-c3ccc4ccc(-c5ccccc5)nc4c3)c3c(N)nccn32)C1 + O=C(Nc1cccc(Cl)c1)Nc1ncc(CCNc2ncnc3ccsc23)s1 [SNS314] (first compound 0.4 µM, partner dose 0.0008 µM)",341,80.4,38.2,235,101,74.6,144,78.9,81.4,85.4,257,120,57.7,143,193,80.5,54.2,118,146
"Cn1cnc2c(F)c(Nc3ccc(Br)cc3Cl)c(C(=O)NOCCO)cc21 [selumetinib] + Cn1cncc1[C@@](N)(c1ccc(Cl)cc1)c1ccc2c(c1)c(-c1cccc(Cl)c1)cc(=O)n2C [tipifarnib] (first compound 0.015 µM, partner dose 0.01 µM)",151,280,193,213,38.6,26.7,115,91,131,144,54.5,82,110,209,74.3,211,130,290,222

# Limited to cleaved PARP positive nuclei fraction (CBRC016) [%] and cleaved PARP positive nuclei fraction (LOXIMVI) [%] (two entries from above):
Compound	cleaved PARP positive nuclei fraction (CBRC016) [%]	cleaved PARP positive nuclei fraction (LOXIMVI) [%]
C[C@]1(O)C[C@@H](c2nc(-c3ccc4ccc(-c5ccccc5)nc4c3)c3c(N)nccn32)C1 + CC1(C)NC(=O)N(c2ccc([N+](=O)[O-])c(C(F)(F)F)c2)C1=O [nilutamide] (first compound 0.4 µM, partner dose 1 µM)	104	96.1
NC1(c2ccc(-c3nc4ccn5c(=O)[nH]nc5c4cc3-c3ccccc3)cc2)CCC1 + CN(NC(=O)CC(=O)NN(C)C(=S)c1ccccc1)C(=S)c1ccccc1 [STA4783] (first compound 0.4 µM, partner dose 0.006 µM)	142	160
